Experimental data as given in paper PMC11065421, “An RNA-dependent and phase-separated active subnuclear compartment safeguards repressive chromatin domains” (Molecular Cell, 2024).
These are yes or no findings as the source states them, for the method shown. For some assays here: In cells and extracts the contact can be indirect. Some binding calls cover weakened binding; strength is not graded here. For some assays here: Sequences can lack the tags named with a protein.

The chains behind the UniProt entries cited, without tags or fusion partners.
UniProt Q8K2F0: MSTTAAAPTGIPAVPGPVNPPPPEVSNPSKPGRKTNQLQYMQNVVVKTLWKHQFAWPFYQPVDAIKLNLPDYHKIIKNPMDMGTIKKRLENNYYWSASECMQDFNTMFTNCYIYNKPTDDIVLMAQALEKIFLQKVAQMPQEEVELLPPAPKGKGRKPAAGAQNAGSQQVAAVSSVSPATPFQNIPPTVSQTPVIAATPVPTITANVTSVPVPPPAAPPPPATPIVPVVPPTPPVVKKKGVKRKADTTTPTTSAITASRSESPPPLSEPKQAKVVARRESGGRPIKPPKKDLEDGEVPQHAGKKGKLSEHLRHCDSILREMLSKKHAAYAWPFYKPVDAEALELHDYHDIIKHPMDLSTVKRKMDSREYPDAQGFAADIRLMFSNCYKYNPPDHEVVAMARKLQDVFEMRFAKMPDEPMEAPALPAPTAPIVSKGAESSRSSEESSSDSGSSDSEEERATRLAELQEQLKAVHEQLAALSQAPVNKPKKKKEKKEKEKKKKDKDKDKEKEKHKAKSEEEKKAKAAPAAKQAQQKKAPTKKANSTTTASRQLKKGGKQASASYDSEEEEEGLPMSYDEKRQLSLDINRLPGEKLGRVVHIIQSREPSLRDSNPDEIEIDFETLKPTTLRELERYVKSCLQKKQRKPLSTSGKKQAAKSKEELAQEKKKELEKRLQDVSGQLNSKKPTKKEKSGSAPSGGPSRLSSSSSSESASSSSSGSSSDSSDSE

How the values were obtained:
F/H-BAZ2A (HEK293T) = F/H-BAZ2A (HEK293T) (UniProt Q91YE5); test: co-IP; IP from co-transfected HEK293T cells (Figures S1J, S1L); which tag was precipitated is not given
recombinant mGFP-BAZ2AN = molecular target: T1, recombinant mGFP-BAZ2AN (UniProt Q91YE5); test: co-sedimentation; droplets of 20 μg recombinant protein formed in 30 μg ESC nuclear extract with 1% PEG8000, 30 min at room temperature, pelleted at 10,000xg; pellet analysed by mass spectrometry; only the target purified
T1 sequence: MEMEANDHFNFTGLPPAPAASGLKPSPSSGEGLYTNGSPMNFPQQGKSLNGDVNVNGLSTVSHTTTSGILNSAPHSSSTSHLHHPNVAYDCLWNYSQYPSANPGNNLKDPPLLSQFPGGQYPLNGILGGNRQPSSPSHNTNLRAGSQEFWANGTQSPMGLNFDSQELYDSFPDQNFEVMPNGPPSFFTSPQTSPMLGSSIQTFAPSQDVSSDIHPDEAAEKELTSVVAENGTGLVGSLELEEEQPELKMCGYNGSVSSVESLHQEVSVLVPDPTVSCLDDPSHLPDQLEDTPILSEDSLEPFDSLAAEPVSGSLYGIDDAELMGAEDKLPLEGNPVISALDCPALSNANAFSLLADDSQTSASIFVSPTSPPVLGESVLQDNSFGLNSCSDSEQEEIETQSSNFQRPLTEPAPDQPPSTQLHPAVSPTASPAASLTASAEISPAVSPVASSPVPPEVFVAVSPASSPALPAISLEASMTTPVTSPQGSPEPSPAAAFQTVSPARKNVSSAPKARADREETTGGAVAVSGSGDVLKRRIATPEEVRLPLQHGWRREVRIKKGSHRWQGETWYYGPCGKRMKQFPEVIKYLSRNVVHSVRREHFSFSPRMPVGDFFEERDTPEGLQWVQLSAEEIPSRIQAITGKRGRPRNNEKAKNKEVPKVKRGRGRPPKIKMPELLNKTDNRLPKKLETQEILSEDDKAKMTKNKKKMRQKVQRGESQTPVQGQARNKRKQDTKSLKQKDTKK

mGFP-BAZ2AWT = mGFP-BAZ2AWT (UniProt Q91YE5); test: co-IP; GFP-Trap magnetic agarose on MNase-digested nuclear extract (200 mM NaCl) of ESC lines, overnight at 4°C; BAZ2A detected with BAZ2A antibodies
recombinant BAZ2AN [1] = molecular target: recombinant BAZ2AN (UniProt Q91YE5); test: native gel or EMSA; SEC fractions on non-denaturing PAGE (no SDS) compared with denaturing PAGE; silver staining; both purified
recombinant BAZ2AN [2] = molecular target: recombinant BAZ2AN (UniProt Q91YE5); test: negative-stain electron microscopy; SEC fraction of BAZ2AN corresponding to >600 kDa, 2% uranyl acetate, 120 kV Tecnai Spirit; both purified
F/H-BAZ2AN = molecular target: T2, F/H-BAZ2AN (UniProt Q91YE5); test: co-IP; anti-HA magnetic beads on MNase-digested nuclear extract (200 mM NaCl) of co-transfected HEK293T cells, overnight at 4°C; Western blot
T2 sequence: T1 sequence

GST-BAZ2A_(N/WT) = molecular target: T3, GST-BAZ2A_(N/WT) (UniProt Q91YE5); test: pull-down; GST-tagged protein on Glutathione Sepharose 4B beads, pre-cleared mGFP-tagged protein added in AM200 buffer (200 mM KCl) for 4 h at 4°C; washes with 300 mM NaCl, 0.5% NP-40; blots with GST and GFP antibodies; both purified
T3 sequence: T1 sequence

mGFP-BAZ2A (HEK293T) (from UniProt Q91YE5 1-1889)
binding (F/H-BAZ2A (HEK293T)): binds

BRD3 (from UniProt Q8K2F0 1-726)
binding (recombinant mGFP-BAZ2AN): binds

endogenous BAZ2A (from UniProt Q91YE5 1-1889)
binding (mGFP-BAZ2AWT): binds

B1: recombinant BAZ2AN (domain or fragment, UniProt Q91YE5 1-744, looked up)
chain: T1 sequence
notes: BAZ2A (TIP5) N-terminal region, aa 1-744; also called BAZ2AN-Hist; source: E. coli BL21(DE3), purified (Glutathione Sepharose, PreScission cleavage, HisTrap)
binding (recombinant BAZ2AN [1]): binds
binding (recombinant BAZ2AN [2]): binds

B2: RAD21 (protein, UniProt Q61550 1-635)
chain: MFYAHFVLSKRGPLAKIWLAAHWDKKLTKAHVFECNLESSVESIISPKVKMALRTSGHLLLGVVRIYHRKAKYLLADCNEAFIKIKMAFRPGVVDLPEENREAAYNAITLPEEFHDFDQPLPDLDDIDVAQQFSLNQSRVEEITMREEVGNISILQENDFGDFGMDDREIMREGSAFEDDDMLVSTSASNLLLEPEQSTSNLNEKMNHLEYEDQYKDDNFGEGNDGGILDDKLISNNDGGIFDDPPALSEAGVMLPEQPAHDDMDEDDNGSLGGPDSPDSVDPVEPMPTMTDQTTLVPNEEEAFALEPIDITVKETKAKRKRKLIVDSVKELDSKTIRAQLSDYSDIVTTLDLAPPTKKLMMWKETGGVEKLFFLPAQPLWNNRLLKLFTRCLTPLVPEDLRKRRKGGEADNLDEFLKEFENPEVPREEQQPQQQQPQPQRDVIDEPIIEEPSRLQDSVMEASRTTIEESAMPPPPPQGVKRKAGQIDPEPSIPPQQVEQMEIPPVELPPEEPPNICQLIPELELLPEKEKEKEKEKEEEEEEEDEDASGGDQDQEERRWNKRTQQMLHGLQRALAKTGAESISLLELCRNTNRKQAAAKFYSFLVLKKQQAIELTQEEPYSDIIATPGPRFHII
binding (recombinant mGFP-BAZ2AN): binds

B3: mGFP-BAZ2AN (domain or fragment, UniProt Q91YE5 1-744)
chain: T1 sequence
binding (F/H-BAZ2AN): binds

B4: recombinant mGFP-BAZ2AN (domain or fragment, UniProt Q91YE5 1-744)
chain: T1 sequence
binding (GST-BAZ2A_(N/WT)): binds
